Laboratory results: PubChem BioAssay AID652272 (Drosophila RNAi Screening Center, 2013)
Assay: 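Finding fly genes that regulate Hedgehog signal transduction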 (primary screen). System: Drosophila clone 8 (Cl8) cells. Reagent: long dsRNA against Drosophila genes. Measurement: 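Plate reader light from a firefly reporter under a ptc promoter fragment that responds to Hedgehog, with Renilla light as transfection reference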. Reading the numbers: firefly Hh reporter signal: higher = more ptc reporter light; Renilla reference signal: higher = more Renilla control light. Call rule: 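Called a hit if the two-replicate mean z-score lies below -2 or above +3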. Meaning of the calls: active = hit: reporter lowered or raised; inactive = not a hit.
The deposit covers about 21,000 reagents; below is a random part of those with a known target gene and a result. Of all reagents, 503 (2.4%) got an active call. 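Raw plate light values, not normalised; calls rest on replicate z-scores that were not deposited; hits include reporter decreases as well as increases.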 Names joined by + are all predicted targets of the reagent. Reagent sequences are not shown. Not stated in the record: the amount of reagent, the time to read-out.

target gene	amplicon	firefly Hh reporter signal, replicate 1	firefly Hh reporter signal, replicate 2	firefly Hh reporter signal, replicate 3	Renilla reference signal, replicate 1	Renilla reference signal, replicate 2	Outcome
CG13332	DRSC06367	1.13e5	87335		2810	7080	inactive
CG6465	DRSC16046	1.16e5	1.03e5		5048	4000	inactive
CG15570	DRSC18058	81365	1.86e5		2720	7130	inactive
CG17826	DRSC10289	53136	69040	59401	5303	4023	inactive
CG42579	DRSC20391	6.75e5	2.70e5		38049	6566	inactive
obe	DRSC15736	1.36e5	61155		5341	1688	inactive
CG4041	DRSC18339	1.08e5	1.87e5		3729	7352	inactive
foi	DRSC10719	58684	50918		7607	3306	inactive
Tsp42Ej	DRSC06113	63113	33682		2640	1329	inactive
CG10332 (retired record) + IM18	DRSC04064	83472	62720		1908	5319	inactive
RhoGAP15B	DRSC19924	80881	84797		1991	2311	inactive
RhoGAP15B	DRSC19925	80243	1.81e5		2167	8160	inactive
Spn47C	DRSC07030	71971	60054		3139	2425	inactive
Sodh1	DRSC12605	1.48e5	1.02e5		5752	3874	inactive
CG8677 + CG31626	DRSC01838	6.28e5	2.22e5	1.59e5	6359	5601	inactive
CG7530	DRSC16255	1.55e5	1.69e5		5910	6045	inactive
Elp1	DRSC14250	1.18e5	82277		4964	3452	inactive
borr	DRSC02749	45169	29721		2566	1696	inactive
Spn88Ea	DRSC17061	99947	70841		3584	2304	inactive
CG3257	DRSC04351	1.34e5	1.04e5		5268	4339	inactive
beat-VI	DRSC14474	1.02e5	1.45e5		3413	4792	inactive
beat-VI	DRSC14727	74932	96077		2608	3174	inactive
Muc30E	DRSC01101	6.51e5	6.97e5	3.02e5	31268	4833	inactive
AstC-R1	DRSC10799	1.94e5			7194	4920	inactive
CG32582 (retired record)	DRSC19114	6.67e5	2.10e5		38560	5868	inactive
CG34430	DRSC06499	80122	48873		1954	4582	inactive
Rab40	DRSC19820	1.19e5	2.63e5		4139	10810	inactive
CG8252	DRSC07126	78726	37344		2573	1448	inactive
NT1	DRSC08530	42656	53819		1888	4274	inactive
Josd	DRSC18323	59392	2.09e5		2290	7350	inactive
Hml	DRSC11183	46346	37932	55093	3520	3378	inactive
Khc-73	DRSC07449	1.22e5	65520		5474	3308	inactive
BRWD3	DRSC15369	1.17e5	1.15e5		4970	5018	inactive
BRWD3	DRSC16032	4.70e5	92329		19898	2458	inactive
mthl6	DRSC10234	65991	52050		7364	3752	inactive
CG6041	DRSC18396	71117	1.44e5		1939	6215	inactive

Records above whose target name begins with R or r:
target gene	amplicon	firefly Hh reporter signal, replicate 1	firefly Hh reporter signal, replicate 2	firefly Hh reporter signal, replicate 3	Renilla reference signal, replicate 1	Renilla reference signal, replicate 2	Outcome
RhoGAP15B	DRSC19924	80881	84797		1991	2311	inactive
RhoGAP15B	DRSC19925	80243	1.81e5		2167	8160	inactive
Rab40	DRSC19820	1.19e5	2.63e5		4139	10810	inactive

Next records follow:
target gene	amplicon	firefly Hh reporter signal, replicate 1	firefly Hh reporter signal, replicate 2	firefly Hh reporter signal, replicate 3	Renilla reference signal, replicate 1	Renilla reference signal, replicate 2	Outcome
Gr58c	DRSC04136	98203	38156		2440	3868	inactive
Kcmf1	DRSC14459	75703	76465		3785	3600	inactive
Sos	DRSC03439	1.07e5	46776		2784	3857	inactive
CG17683	DRSC21160	64292	2.36e5		1948	9681	inactive
CG4496	DRSC02753	1.38e5	56688		3728	5826	inactive
CG43397 + CG12902	DRSC06217	87488	66101		1960	5664	inactive
RhoGAP18B	DRSC19763	52489	2.21e5		928	8906	inactive
RhoGAP18B	DRSC20047	62742	1.86e5		1705	8208	inactive
RhoGAP18B	DRSC20048	76056	1.86e5		1987	6217	inactive
RhoGAP18B	DRSC20049	80634	66492		8008	2384	active
CR18275	DRSC18151	1.00e5	2.52e5		2992	11387	inactive
apolpp	DRSC17216	56997	90281		1269	2635	inactive
CG3706	DRSC18649	1.24e5	3.33e5		4469	13565	inactive
CG33306	DRSC01899	55447	30602		2619	1449	inactive
CG14635	DRSC17945	77597	1.74e5		1904	6649	inactive
Vps2	DRSC14886	88279	69941		2011	1785	inactive
Rnmt	DRSC03558	90961	60045		2294	4688	inactive
Acp33A + CG15841 (retired record)	DRSC01859	1.03e5	56440		2820	5584	inactive
CG7943	DRSC16351	81875	83403		2304	2437	inactive
CG12708	DRSC19490	90845	2.32e5		3220	10519	inactive
Ccs	DRSC06692	86176	62592		2267	4771	inactive
